Columns and labels:
[1] = tested on: SARS-CoV-2; assay: Anti-SARS-CoV-2 immunofluorescence assay (anti-S) in Calu-3 cells; format: cell-based; conditions: Severe acute respiratory syndrome coronavirus 2, 48 h; Calu-3, MOI 0.05, 2 days
[2] = Cytotoxicity to mock-infected Calu-3 cells (MTT); conditions: human

**Q.** With CCC(CC)COC(=O)[C@H](C)N[P@](=O)(OC[C@H]1O[C@@](C#N)(c2ccc3c(N)ncnn23)[C@H](O)[C@@H]1O)Oc1ccccc1 [Remdesivir, reference compound] as the compound, how does the EC50 [1] read?
**A.** Its EC50 is 780 nM.

**Q.** And the CC50 at 2 days [2]?
**A.** Its CC50 at 2 days is over 100 µM.
